Test in all cases: co-IP; protein extracts from Drosophila testes expressing GFP- or YFP-tagged proteins; precipitated with GFP-trap beads (ChromoTek), immunoblotted
In assay [1] the target is T1, YFP-Rab11 (wild type) (Drosophila) (UniProt O18335).
T1 sequence: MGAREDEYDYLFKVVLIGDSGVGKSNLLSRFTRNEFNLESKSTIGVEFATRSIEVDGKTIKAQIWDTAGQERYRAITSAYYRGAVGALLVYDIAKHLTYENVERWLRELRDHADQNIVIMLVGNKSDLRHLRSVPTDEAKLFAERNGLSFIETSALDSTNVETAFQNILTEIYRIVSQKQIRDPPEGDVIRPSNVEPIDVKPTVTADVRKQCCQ

The target of assay [2] is T2, YFP-Rab11^Q70L (Drosophila) (UniProt O18335).
T2 sequence: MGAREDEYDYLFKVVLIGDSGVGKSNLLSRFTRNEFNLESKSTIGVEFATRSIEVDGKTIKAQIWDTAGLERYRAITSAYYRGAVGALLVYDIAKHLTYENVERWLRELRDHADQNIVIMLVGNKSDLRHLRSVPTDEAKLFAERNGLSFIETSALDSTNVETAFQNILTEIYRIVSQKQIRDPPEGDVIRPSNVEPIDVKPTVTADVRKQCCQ

Assay [3] concerns the target T3, YFP-Rab11^S25N (Drosophila) (UniProt O18335).
T3 sequence: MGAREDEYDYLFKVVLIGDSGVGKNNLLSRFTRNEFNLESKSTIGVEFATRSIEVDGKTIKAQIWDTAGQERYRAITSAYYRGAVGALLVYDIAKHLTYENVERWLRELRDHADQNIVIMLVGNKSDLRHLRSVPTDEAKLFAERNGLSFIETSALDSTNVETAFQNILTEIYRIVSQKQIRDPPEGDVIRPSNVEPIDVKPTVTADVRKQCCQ

Results are given in words; binding and its absence hold for the method and conditions named. Binding seen in cells or lysates may run through a third protein. Some results given as binding are weak or reduced against the parent protein; the word gives no strength. Where a sequence is shown, tags or fusion partners need not be part of it.

B1: Sec5 (protein, UniProt Q9VQQ9 1-894)
chain: MAPQPVVTGLSPKEGPPGTRVIIRGEFLGTRVQDLIGLKICGSDCLLSAEWKSPNKIIARTGPAKGKGDIIVTTLSGGVGTSTVQFRAYHETIGPLKESAVWIEESPSQNFAWGRRTLAQSGLTQEDPLGLSIEGNEQKIPEDLRDLFPEACGDLSQEHFSPAWFLLENHLATSFEDLKAGLSYLKRKVESQKEGQLSFLKSNAGSVIDQLDTLMNIRDKLQEDVKLHGNETLNILETSIENSISESQKIFTDVLVRKEKADSTRSVLFALSRHKFLFCLPNSVDRRAKAGEYDIVVNDYSRAKNLFGKTEIPIFRKVLEEVDHRILSIRKQLHEKVVKMPQSVEQQKKLIKALISLELQQSGTPIGDKLRNIDPAWDAIEARAKYLEWTFRQTFDQHTSKDSGAQEKAKNRDSSQAPNRVNFCEELCDIAASQLPDLWRLGQLYFTGELRGPHDPKPGDFKRMVLNAIEKFCVYLRLAILIATDQRALRQSSGLAWPIGSASATHQFLPWIPQCLRFTRIAYATLISLDLPSEALDIIQKLIDEVRLFCFSIIFKRATDRCKKLGSQETWELGVEEYPGATLLPAALETLLIETLDEVQSVCMQRETREGNLLEPQSDGQREVTQRLQEFLSAFSAVIEELAFHSHDEETPTHNVSQLLGFPNAQQPDSVAGSGGAAAVTWEQRMLCCLANYAYCNKIFFPRLGDIFVRYGYPLPTLAIETARYTVNQLFTNLLEEYVEHKGDPLVGTIEPSMYLGRFQWDHEMEIGQLRPYAHECCDNLVGVYSEIYSISPALLRPILESIVQTISEELARLMSCVQRFSFTGAIQAHVDIRLLRDSLEGYVNETAKNYFMEALEAINPPLSGEQKRKADEILERVKRNMRLQLLCFSVKDP
B1: the binding entry was “binds” in assay [1], “binds” in assay [2] and “binds weakly” in assay [3].
